The source of these data is PMC8287952, “PARP1 and CHK1 coordinate PLK1 enzymatic activity during the DNA damage response to promote homologous recombination-mediated repair” (Nucleic Acids Research, 2021).

The chains behind the UniProt entries cited, without tags or fusion partners.
UniProt P53350: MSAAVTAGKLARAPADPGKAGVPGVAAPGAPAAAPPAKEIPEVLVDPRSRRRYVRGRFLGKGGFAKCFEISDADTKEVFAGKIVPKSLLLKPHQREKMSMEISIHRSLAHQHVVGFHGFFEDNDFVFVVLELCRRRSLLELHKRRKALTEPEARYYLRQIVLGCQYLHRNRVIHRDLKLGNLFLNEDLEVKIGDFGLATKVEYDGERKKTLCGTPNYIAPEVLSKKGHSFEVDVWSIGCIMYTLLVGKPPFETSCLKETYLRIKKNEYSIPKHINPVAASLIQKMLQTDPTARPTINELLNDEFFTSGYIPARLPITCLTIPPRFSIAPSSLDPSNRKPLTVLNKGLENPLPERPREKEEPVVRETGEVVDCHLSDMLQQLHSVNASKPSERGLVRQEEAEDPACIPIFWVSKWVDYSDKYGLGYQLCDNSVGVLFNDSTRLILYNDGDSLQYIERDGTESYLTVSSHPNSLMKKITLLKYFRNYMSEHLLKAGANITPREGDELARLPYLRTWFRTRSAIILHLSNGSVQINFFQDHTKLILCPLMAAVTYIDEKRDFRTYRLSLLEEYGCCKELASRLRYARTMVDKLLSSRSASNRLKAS

Results are given in words; binding and its absence hold for the method and conditions named. In cells and extracts the contact can be indirect. Some binding calls cover weakened binding; strength is not graded here.

The target of the test is epitope-tagged PLK1 (UniProt P53350). Put plainly: co-IP; epitope-tagged constructs (Supplementary Figures S4A-C); immunoprecipitation and immunoblotting as previously described. On the technique in general: A western blot detects proteins with antibodies after separation by electrophoresis.

B1: CHK1 construct (1-265) (domain or fragment, UniProt O14757 1-265)
chain: MAVPFVEDWDLVQTLGEGAYGEVQLAVNRVTEEAVAVKIVDMKRAVDCPENIKKEICINKMLNHENVVKFYGHRREGNIQYLFLEYCSGGELFDRIEPDIGMPEPDAQRFFHQLMAGVVYLHGIGITHRDIKPENLLLDERDNLKISDFGLATVFRYNNRERLLNKMCGTLPYVAPELLKRREFHAEPVDVWSCGIVLTAMLAGELPWDQPSDSCQEYSDWKEKKTYLNPWKKIDSAPLALLHKILVENPSARITIPDIKKDRWY
On to B1, for which the binding entry is recorded as “binds”.
